# Assay results: the supplement of paper PMC4604168 (melanoma cell lines)
# The other results are listed elsewhere or left out. Single values are uncertain, as repeats are few or missing.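 The apoptosis fraction was the count of cleaved-PARP antibody-stained nuclei relative to all DNA-stained nuclei, imaged in 1,536-well plates. Screening doses were set so most cells survived, and baseline and induced cleaved-PARP levels vary greatly across cell lines.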
# Assays:
# Experiment in all cases: cleaved PARP positive nuclei fraction relative to DMSO control; melanoma cells; higher = more apoptosis
# Conditions in all cases: library dose: low library concentration; 72 h
# 501Mel = system: 501Mel
# A101D = system: A101D
# A2058 = system: A2058
# C32 = system: C32
# CBRC008 = system: CBRC008 (line from a melanoma biopsy)
# CBRC014 = system: CBRC014 (line from a melanoma biopsy)
# CBRC016 = system: CBRC016 (line from a melanoma biopsy)
# CBRC017 = system: CBRC017 (line from a melanoma biopsy)
# COLO792 = system: COLO792
# COLO800 = system: COLO800
# COLO829 = system: COLO829
# G361 = system: G361
# IPC-298 = system: IPC-298
# IST-MEL1 = system: IST-MEL1
# LB2518-MEL = system: LB2518-MEL
# LOXIMVI = system: LOXIMVI
SMILES,cleaved PARP positive nuclei fraction (501Mel) [%],cleaved PARP positive nuclei fraction (A101D) [%],cleaved PARP positive nuclei fraction (A2058) [%],cleaved PARP positive nuclei fraction (C32) [%],cleaved PARP positive nuclei fraction (CBRC008) [%],cleaved PARP positive nuclei fraction (CBRC014) [%],cleaved PARP positive nuclei fraction (CBRC016) [%],cleaved PARP positive nuclei fraction (CBRC017) [%],cleaved PARP positive nuclei fraction (COLO792) [%],cleaved PARP positive nuclei fraction (COLO800) [%],cleaved PARP positive nuclei fraction (COLO829) [%],cleaved PARP positive nuclei fraction (G361) [%],cleaved PARP positive nuclei fraction (IPC-298) [%],cleaved PARP positive nuclei fraction (IST-MEL1) [%],cleaved PARP positive nuclei fraction (LB2518-MEL) [%],cleaved PARP positive nuclei fraction (LOXIMVI) [%]
"C=C(c1ccc(C(=O)O)cc1)c1cc2c(cc1C)C(C)(C)CCC2(C)C [Bexarotene] + CCN(CC)CCCCNc1ncc2cc(-c3cc(OC)cc(OC)c3)c(NC(=O)NC(C)(C)C)nc2n1 [PD173074] (first compound 2 µM, partner dose 0.1 µM)",68.9,55.4,96.2,128,117,257,157,117,88.6,41.7,68.9,87.2,147,136,67.5,68.2
"O=C(O)c1ccc2c(c1)nc(Nc1cccc(Cl)c1)c1ccncc12 + COc1ccc(COc2ccc(Cc3cnc(N)nc3N)cc2OC)cc1 [GW2580] (first compound 0.4 µM, partner dose 1 µM)",140,34.4,149,83,122,180,175,200,162,77.2,98.5,105,81.3,64,94.2,323
"O=C(O)[C@@H]1[O][Sb](=[O])([O][Sb]2(=[O])[O][C@H]([C@H](O)CO)[C@H](O)[C@H](C(=O)O)[O]2)[O][C@H]([C@H](O)CO)[C@@H]1O (some centres undefined) [stibogluconate] + O=c1cc(-c2cccc3c2Sc2ccccc2S3)oc(N2CCOCC2)c1 [KU55933] (first compound 2 µM, partner dose 1 µM)",70.2,27.9,84.2,169,48.3,122,24.3,91.1,81.3,131,50.9,127,93.4,28.7,135,48.4
"CNC(=O)c1cc(Oc2ccc(NC(=O)Nc3ccc(Cl)c(C(F)(F)F)c3)cc2)ccn1 [sorafenib] + COc1ccc(-c2ccc3c(N4CCOCC4)nc(N4C[C@@H](C)O[C@@H](C)C4)nc3n2)cc1CO [KU0063794] (first compound 0.4 µM, partner dose 0.02 µM)",87.3,8.51,183,93.4,60,88.5,44.5,84.8,53.9,54.5,82.3,34.5,34.4,143,65,81.8
"Cc1cc(Nc2cc(N3CCN(C)CC3)nc(/C=C/c3ccccc3)n2)n[nH]1 + O=C(Nc1ccccc1)c1cc([N+](=O)[O-])ccc1Cl [GW9662] (first compound 0.04 µM, partner dose 2 µM)",174,43.2,349,68.1,49.7,106,69.2,91.7,47.4,201,63.4,62.3,88.9,67,85.4,80
"C=C(c1ccc(C(=O)O)cc1)c1cc2c(cc1C)C(C)(C)CCC2(C)C [Bexarotene] + O=c1cc(-c2cccc3c2Sc2ccccc2S3)oc(N2CCOCC2)c1 [KU55933] (first compound 2 µM, partner dose 1 µM)",108,7.4,162,227,371,98.7,74,111,55.6,23.3,157,64.6,57.1,110,35.5,109
"CN1CCN(c2ccc3nc(-c4c(N)c5c(F)cccc5[nH]c4=O)[nH]c3c2)CC1 [Dovitinib] + O=c1cc(-c2cccc3c2Sc2ccccc2S3)oc(N2CCOCC2)c1 [KU55933] (first compound 0.1 µM, partner dose 1 µM)",81.4,27.9,158,51.7,40.1,99.7,134,159,53.3,44.4,70.6,36.9,46.2,132,73.1,130
"O=C(O)[C@@H]1[O][Sb](=[O])([O][Sb]2(=[O])[O][C@H]([C@H](O)CO)[C@H](O)[C@H](C(=O)O)[O]2)[O][C@H]([C@H](O)CO)[C@@H]1O (some centres undefined) [stibogluconate] + COc1ccc(COc2ccc(Cc3cnc(N)nc3N)cc2OC)cc1 [GW2580] (first compound 2 µM, partner dose 1 µM)",60.9,27.4,94.8,112,30.2,72,48.2,146,82.1,32.3,89.1,99.4,39.2,135,63.4,106
"O=C(O)c1ccc2c(c1)nc(Nc1cccc(Cl)c1)c1ccncc12 + CCN(CC)CCCCNc1ncc2cc(-c3cc(OC)cc(OC)c3)c(NC(=O)NC(C)(C)C)nc2n1 [PD173074] (first compound 0.4 µM, partner dose 0.1 µM)",64,8.87,107,89.3,106,115,121,205,162,194,101,184,75.7,104,57.8,462
